No constants are given. Whether binding was seen depends on the method and setting. In cells and extracts the contact can be indirect. Some results given as binding are weak or reduced against the parent protein; the word gives no strength.

Amino acid sequences for entries named in this document (tags omitted). A change or cut given only in a name is not applied to a line headed by its entry.
UniProt P29350: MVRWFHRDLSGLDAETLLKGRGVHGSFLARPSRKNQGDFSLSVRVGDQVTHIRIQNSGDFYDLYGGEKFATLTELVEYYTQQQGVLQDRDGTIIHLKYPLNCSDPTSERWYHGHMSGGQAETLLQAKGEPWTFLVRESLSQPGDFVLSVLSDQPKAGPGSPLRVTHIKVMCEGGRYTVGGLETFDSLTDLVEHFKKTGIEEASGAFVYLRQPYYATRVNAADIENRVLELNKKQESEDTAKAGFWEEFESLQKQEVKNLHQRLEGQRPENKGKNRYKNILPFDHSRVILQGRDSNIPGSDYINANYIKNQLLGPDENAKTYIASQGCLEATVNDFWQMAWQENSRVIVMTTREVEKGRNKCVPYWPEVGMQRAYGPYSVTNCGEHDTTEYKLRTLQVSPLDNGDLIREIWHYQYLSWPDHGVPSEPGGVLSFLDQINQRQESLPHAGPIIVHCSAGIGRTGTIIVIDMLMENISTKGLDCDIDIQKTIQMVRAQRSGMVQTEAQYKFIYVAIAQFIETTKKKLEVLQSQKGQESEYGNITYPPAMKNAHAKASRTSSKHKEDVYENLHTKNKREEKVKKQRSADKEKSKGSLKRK
UniProt Q96DU3: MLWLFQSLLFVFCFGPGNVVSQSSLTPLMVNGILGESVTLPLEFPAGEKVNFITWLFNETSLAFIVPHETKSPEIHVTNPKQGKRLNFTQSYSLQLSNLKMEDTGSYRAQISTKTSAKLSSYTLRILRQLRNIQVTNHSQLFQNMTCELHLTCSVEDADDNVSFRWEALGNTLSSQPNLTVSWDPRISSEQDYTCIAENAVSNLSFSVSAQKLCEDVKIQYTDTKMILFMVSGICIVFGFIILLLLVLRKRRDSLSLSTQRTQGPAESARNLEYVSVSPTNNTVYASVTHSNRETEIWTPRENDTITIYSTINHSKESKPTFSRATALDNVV

Assay [1] concerns the target SHP-1 (human) (UniProt P29350). The assay is described as follows: co-immunoprecipitation from untreated NK cell lysates, anti-SHP-1 western blot. On the technique in general: A western blot detects proteins with antibodies after separation by electrophoresis.
In assay [2] the target is SHP-1 (human) (UniProt P29350). Description: co-immunoprecipitation, result restated in the discussion.

Regarding “NTB-A (NK-T-B-antigen) (from UniProt Q96DU3 22-332) (receptor)”, the binding entry in assay [1] and in assay [2] was “binds” each time.

The values are drawn from patent US20070065875A1.
